Some of these results come from one statement about several compounds together. For at least one compound, name, drawing or mass did not settle the structure.
Tested on: rhesus monkeys
Test: Heroin-induced respiratory depression, head plethysmograph, seated monkeys
Conditions: day of antagonist administration; s.c.

Row | Compound | rightward shift of heroin dose-effect curve (respiratory depression)
1 | O=C1CC[C@@]2(O)[C@H]3Cc4ccc(O)c5c4[C@@]2(CCN3CC2CC2)[C@H]1O5 [naltrexone, reference compound] | 6-10 fold
2 | Cc1ccc(/C=C/C(=O)N[C@@]23CCC(=O)[C@@H]4Oc5c(O)ccc6c5[C@@]42CCN(CC2CC2)[C@@H]3C6)cc1 [MCAM, methocinnamox] | 6-10 fold

— patent publication US11123334B2 (priority 2018, dated 2021)
